According to publication PMC7058624:
These are yes or no findings as the source states them, for the method shown. Binding seen in cells or lysates may run through a third protein. Some entries that bind do so weakly or less than the wild type. Where a sequence is shown, tags or fusion partners need not be part of it.

Biological target: T1, HA-Id3 (mouse full-length Id3 fused to a Hemagglutinin tag) (mouse), P41133
T1 chain: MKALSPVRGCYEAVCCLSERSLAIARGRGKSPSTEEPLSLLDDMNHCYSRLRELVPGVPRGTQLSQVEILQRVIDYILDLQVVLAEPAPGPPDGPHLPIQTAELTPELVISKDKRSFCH
Assay: co-IP; HA-Tag Co-IP kit (Thermo Fisher); WT mouse BMMSCs transfected with vector or HA-Id3 plasmid, cold RIPA lysate, anti-HA agarose, 4 °C overnight, washed with TBS-T, eluate analysed by western blot
Details: remark: other sources report otherwise

B1: E2A (basic helix-loop-helix protein E2A), P15806 1-651 (protein)
chain: MMNQSQRMAPVGSDKELSDLLDFSMMFPLPVANGKSRPASLGGTQFAGSGLEDRPSSGSWGSSDQNSSSFDPSRTYSEGAHFSDSHSSLPPSTFLGAGLGGKGSERNAYATFGRDTSVGTLSQAGFLPGELSLSSPGPLSPSGIKSSSQYYPSFPSNPRRRAADGGLDTQPKKVRKVPPGLPSSVYPPSSGDSYSRDAAAYPSAKTPSSAYPSPFYVADGSLHPSAELWSTPSQVGFGPMLGDGSSPLPLAPGSSSVGSGTFGGLQQQDRMGYQLHGSEVNGSLPAVSSFSAAPGTYSGTSGHTPPVSGAAAESLLGTRGTTASSSGDALGKALASIYSPDHSSNNFSPSPSTPVGSPQGLPGTSQWPRAGAPSALSPNYDAGLHGLSKMEDRLDEAIHVLRSHAVGTASDLHGLLPGHGALTTSFTGPMSLGGRHAGLVGGSHPEEGLTSGASLLHNHASLPSQPSSLPDLSQRPPDSYSGLGRAGTTAGASEIKREEKEDEEIASVADAEEDKKDLKVPRTRTSPDEDEDDLLPPEQKAEREKERRVANNARERLRVRDINEAFKELGRMCQLHLSSEKPQTKLLILHQAVAVILSLEQQVRERNLNPKAACLKRREEEKVSGVVGDPQLALSAAHPGLGEAHNPAGHL
For B1, the binding was “binds”.
